# Hit rate of the full screen: of about 340,000 compounds, about 6,200 (1.8%) were called active. The inconclusive results got no clear call from the source; some entries with a clear call stand among them for comparison. Calls come from the whole dose curve; as a rule, active = well fitted activation curve with a large enough effect; inconclusive = small, poorly fitted or top-dose-only effect; inactive = no such curve, though single readings can be large or run the other way. A potency beside an inconclusive call is a rough fit, not a confirmed value.
# Experiment: A quantitative high throughput screen for small molecules that induce DNA re-replication in SW480 colon adenocarcinoma cells. For re-replication activation: % of control where 0% means no effect. Note: nearly all actives have a fitted effect of over 55% in size.
# Settings: Hoechst DNA content imaging, 48 h; re-replication activation: at 46.1 µM (top of the series) unless noted
# Procedure, shortened: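 Quantitative HTS format with DMSO vehicle controls; 48 hr drug incubation at 37 C, then 40 min Hoechst staining and scanning imager measurement at 405 nm excitation.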
# Potency is the fitted concentration of half-maximal effect.
SMILES,Potency,re-replication activation
O=S(=O)(Nc1ncnc2scc(-c3ccc(F)cc3)c12)c1cc(F)ccc1F,"inconclusive: 4.61 µM [activator, single point]",–
CCCCn1c(=O)[nH]c(=O)c2c1nc(-c1ccc(OCCC)c(OCC)c1)n2CCOC,–,inactive: 6.45%
CCOc1cc(/C=C2\CCCC(C(=O)C(F)(F)F)=C2O)ccc1O,"inconclusive: 14.6 µM [activator, partial curve]",–
Cc1nn(-c2ccccc2)nc1C(=O)Nc1ccc2c(c1)OCCO2,"inconclusive: 16.4 µM [activator, single point]",–
Cc1ncc(CO)c(/C=N/NC(=S)Nc2ccc(C(C)C)cc2)c1O,active: 2.91 µM,–
CC(C)(C)C1CCC(=NNc2nc3ccccc3[nH]2)CC1 (configuration not stated),active: 16.4 µM,–
COc1ccc(C2=C(C=Nc3c(C)n(C)n(-c4ccccc4)c3=O)C(c3ccccc3C)c3ccccc3O2)cc1OC (configuration not stated),–,inactive: -4.44% [at 9.22 µM]
CCCCOc1ccc(C(=O)OCC(=O)Nc2cc(C)c(C)cc2[N+](=O)[O-])cc1,"inconclusive: 8.2 µM [activator, partial curve, poor fit]",–
O=C(C[C@H]1C/C=C\CCCCC(=O)OC[C@H]2CCCN2C1=O)N[C@H](CO)Cc1ccccc1,–,inactive: -7.62%
O=C(NC1CCCCCCC1)c1cc(F)c(F)cc1Cl,"inconclusive: 16.4 µM [activator, single point]",–
O=C(CCCCn1c(=O)c2ccccc2n(Cc2ccc(Cl)cc2)c1=O)NCc1ccco1,"inconclusive: 20.6 µM [activator, single point]",–
COc1ccccc1N1CCN(c2ncc(C(=O)N3CCN(c4cccc(Cl)c4)CC3)c3ccccc23)CC1,"inconclusive: 6.51 µM [activator, single point]",–
COc1ccc(-c2ccccc2[C@H]2[C@@H]3C=CC[C@@H](C)[C@@H]3C(=O)N2Cc2ccccc2)cc1,"inconclusive: 0.164 µM [activator, full curve, poor fit]",–
Cc1ccc(N(C(=O)c2snc(C(N)=O)c2N)C(C(=O)NC2CCCC2)c2ccco2)cc1 (configuration not stated),"inconclusive: 29.1 µM [activator, single point]",–
O=S1(=O)CCOC[C@H](Cc2ccccc2)N1Cc1ccccc1Br,–,inactive: 1.97%
N=c1n(CCN2CCCCC2)c2ccccc2n1CC(=O)c1ccc(Cl)c(Cl)c1,"inconclusive: 25.9 µM [activator, single point]",–
CNC(=O)C1C(=S)NC(N)=C(C#N)C1c1ccccc1 (configuration not stated),active: 3.26 µM,–
CCOC(=O)C(=O)Nc1nc(-c2ccccc2)c(-c2ccccc2)o1,–,inactive: -0.139%
COc1cccc(/C=C/C(=O)OCC(=O)Nc2ccc(Cl)c(S(=O)(=O)N(C)C)c2)c1,"inconclusive: 0.731 µM [activator, full curve, poor fit]",–
O=C(N/N=C/c1ccc(Cl)c([N+](=O)[O-])c1)c1cc(-c2ccccc2)nc2ccccc12,–,inactive: -9.86%
CC(C)Oc1ccc(CC2CCC(=O)N(C)C2=O)cc1 (configuration not stated),–,inactive: -1.62%
CCOc1ccccc1C(=O)NC1CC2CCCC(C1)N2Cc1ccc(C)cc1 (configuration not stated),–,inactive: -1.44%
Nc1cc(S(=O)(=O)Nc2cc(Cl)ccc2Cl)ccc1N1CCOCC1,"inconclusive: 20.6 µM [activator, single point]",–

SMILES,Potency,re-replication activation
COC(=O)[C@]1(C)CCC[C@@]2(C)C3CC[C@@]4(C)C[C@]3(CCC21)CC(=O)N4 (some centres not stated),"inconclusive: 0.651 µM [activator, single point]",–
Cc1cc(NC(=O)/C=C/C(=O)N(CC(=O)NC2CCCC2)c2ccc(F)cc2)no1,"inconclusive: 15.8 µM [activator, single point]",–
CCCC(=O)Nc1nc(C)c(-c2csc(Nc3ccc(Cl)cc3)n2)s1,–,inactive: 1.4%
CCOc1ccccc1N1CCN(C(=O)CNC(=O)c2sc3ccccc3c2Cl)CC1,"inconclusive: 18.4 µM [activator, single point]",–
CCOC(=O)C(C)Sc1nnc(Cc2cc(=O)[nH]c(=O)[nH]2)n1-c1ccc(OCC)cc1 (configuration not stated),–,inactive: -2.68%
O=C(c1nc[nH]c1C(=O)N1CCN(c2ccccc2)CC1)N1CCN(c2ccccc2)CC1,–,inactive: -15.3%
COc1cccc(-c2nn(-c3ccccc3)cc2CN(C)Cc2ccon2)c1,–,inactive: -0.102%
Cc1sc2nc3c(C(=O)N4CCCC4)cc(C(=O)c4ccccc4O)cn3c(=O)c2c1C,–,inactive: 3.34%
CCN(CC(=O)Nc1sc2c(c1C#N)CCC(C)C2)CC(=O)NC1CCS(=O)(=O)C1 (configuration not stated),"inconclusive: 14.1 µM [activator, single point]",–
COc1cc(OC)cc(C(=O)/C=C2\Sc3ccccc3N2C)c1,"inconclusive: 11.6 µM [activator, partial curve, poor fit]",–
CC(C)CN(C(=O)CCCOc1ccc(Cl)cc1Cl)c1c(N)n(Cc2ccccc2)c(=O)[nH]c1=O,–,inactive: 19.1%
CCOc1ccc(S(=O)(=O)NCc2csc(C)n2)cc1,"inconclusive: 29.1 µM [activator, single point]",–
O=C(Cc1ccccc1)Nc1ncnc2c1C(c1ccccc1)c1c(ccc3ccccc13)O2 (configuration not stated),"inconclusive: 13 µM [activator, single point]",–
O=C(Nc1c(Cl)ccc2nsnc12)c1ccc([N+](=O)[O-])o1,"inconclusive: 0.651 µM [activator, full curve]",–
Cc1ccc(C)c(NS(=O)(=O)c2cc(C(=O)NCc3ccncc3)ccc2C)c1,–,inactive: -3.08%
Cc1ccc(Cn2ccc(NC(=O)c3noc4c3CCCCC4)n2)cc1,–,inactive: 4.65%
O=C(Nc1cccc(S(=O)(=O)NC2=NCCCCC2)c1)c1cc(-c2ccco2)nc2ccccc12,"inconclusive: 29.1 µM [activator, single point]",–
COc1ccccc1OCC(=O)Nc1cccc(-c2nc3ccccc3o2)c1,"inconclusive: 7.31 µM [activator, single point]",–
Cc1ccc(S(=O)(=O)N2CCCCC2)cc1C(=O)OCC(=O)NC(=O)NC12CC3CC(CC(C3)C1)C2,–,inactive: -6.97%
CCNc1cc(N2CCN(S(=O)(=O)c3ccc4c(c3)CCCC4)CC2)ccc1[N+](=O)[O-],–,inactive: 2.58%
CC1(CC(=O)N/N=C/c2cc([N+](=O)[O-])c(O)cc2O)OCCO1,"inconclusive: 29.1 µM [activator, single point]",–
CC1CC(CCN)(c2ccccc2)C(C)CN1C (configuration not stated),"inconclusive: 0.92 µM [activator, full curve, poor fit]",–
Cn1ccc2cc(-c3ccc4ncnc(NCc5cccs5)c4c3)ccc21,"inconclusive: 20.6 µM [activator, single point]",–

# Complete entries, looked up by structure.
# Cc1sc2nc3c(C(=O)N4CCCC4)cc(C(=O)c4ccccc4O)cn3c(=O)c2c1C in the list: re-replication activation: inactive: 3.34%
# CC(C)CN(C(=O)CCCOc1ccc(Cl)cc1Cl)c1c(N)n(Cc2ccccc2)c(=O)[nH]c1=O in the list: re-replication activation: inactive: 19.1%

# Continued.

SMILES,Potency,re-replication activation
CCCCCCN1CC(=O)N2[C@@H](Cc3c([nH]c4ccccc34)C2(C)C)C1=O,"inconclusive: 29.1 µM [activator, single point]",–
CCCCNCCOCCOc1ccc(C)cc1Br,"inconclusive: 14.6 µM [activator, partial curve, poor fit]",–
O=C(N/N=C/c1ccccc1O)C1(O)c2ccccc2-c2ccccc21,"inconclusive: 22.4 µM [activator, single point]",–
Cc1cc(C)c(NC(=O)CNC(=O)c2ccccc2OCc2c(C)noc2C)c(C)c1,"inconclusive: 20.6 µM [activator, single point]",–
CCCc1cc(NCCCN(C)C)n2c(nc3ccccc32)c1C#N,"inconclusive: 18.4 µM [activator, single point]",–
O=[N+]([O-])c1ccc(N/N=C\c2cccn2-c2ccccc2)nc1,"inconclusive: 23.1 µM [activator, single point]",–
CCN(CC)Cc1c(O)ccc2cc(-c3nc4ccccc4n3C)c(=O)oc12,"inconclusive: 29.1 µM [activator, single point]",–
O=C(C[C@H]1C/C=C\CC[C@H](Cc2ccc(F)cc2)C(=O)OCCNC1=O)NCCO,–,inactive: -0.781%
OCc1c[nH]c2ccccc12,–,inactive: -0.146%
COc1ccc(NS(=O)(=O)c2cccc(NC(=O)CCS(=O)(=O)c3ccccc3)c2)cc1,"inconclusive: 11.6 µM [activator, partial curve, poor fit]",–
Cc1ccc(S(=O)(=O)NNC(=S)NCCc2ccccc2)cc1,–,inactive: -7.9%
CC(NC(=O)CSc1n[nH]c(N)n1)c1ccccc1 (configuration not stated),–,inactive: -9.83%
CC1(C)CC2CC(C)(CN2c2ncnc3ccccc23)C1 (configuration not stated),"inconclusive: 20.6 µM [activator, single point]",–
O=C(c1ccc(Cn2cnnn2)cc1)N1CCCC(Nc2ccc(F)c(F)c2)C1 (configuration not stated),"inconclusive: 20.6 µM [activator, single point]",–
CCCCn1c(N)c(N(CCOC)C(=O)c2cc3ccccc3cc2OC)c(=O)[nH]c1=O,–,inactive: -0.892%
COc1cccc(/C=N/NC(=O)c2cc(-c3cccn3C)n[nH]2)c1O,"inconclusive: 2.82 µM [activator, full curve, poor fit]",–
Cc1cccc(NC(=O)CSc2ncnc3nc[nH]c23)c1C,"inconclusive: 29.1 µM [activator, single point]",–
O=Cc1cn(CC(=O)Nc2ccc(F)cc2)c2ccccc12,"inconclusive: 5.8 µM [activator, full curve, poor fit]",–
CC(NC(=O)CN1C(=O)NC(Cc2ccccc2)(Cc2ccccc2)C1=O)C12CC3CC(CC(C3)C1)C2 (configuration not stated),"inconclusive: 29.1 µM [activator, single point]",–
COc1cc(/C=N\NC(=O)c2ccccc2F)ccc1Oc1ccc([N+](=O)[O-])cn1,"inconclusive: 29.1 µM [activator, single point]",–
COc1cc(Cl)cc(/C=C/c2ccc3ccccc3n2)c1OC(C)=O,"inconclusive: 29.1 µM [activator, single point]",–

# Reference: PubChem BioAssay AID624297 (National Center for Advancing Translational Sciences (NCATS), 2012)
